Measured values: publication doi:10.1101/2020.07.08.161463 (bioRxiv, 2020)
These are yes or no findings as the source states them, for the method shown. Binding seen in cells or lysates may run through a third protein. A result given as binding can be weak or reduced; the word gives no strength.

Sequences of proteins named here, by UniProt entry; tags and fusion partners are left off. A change or cut given only in a name is not applied to a line headed by its entry.
UniProt Q9NVA2: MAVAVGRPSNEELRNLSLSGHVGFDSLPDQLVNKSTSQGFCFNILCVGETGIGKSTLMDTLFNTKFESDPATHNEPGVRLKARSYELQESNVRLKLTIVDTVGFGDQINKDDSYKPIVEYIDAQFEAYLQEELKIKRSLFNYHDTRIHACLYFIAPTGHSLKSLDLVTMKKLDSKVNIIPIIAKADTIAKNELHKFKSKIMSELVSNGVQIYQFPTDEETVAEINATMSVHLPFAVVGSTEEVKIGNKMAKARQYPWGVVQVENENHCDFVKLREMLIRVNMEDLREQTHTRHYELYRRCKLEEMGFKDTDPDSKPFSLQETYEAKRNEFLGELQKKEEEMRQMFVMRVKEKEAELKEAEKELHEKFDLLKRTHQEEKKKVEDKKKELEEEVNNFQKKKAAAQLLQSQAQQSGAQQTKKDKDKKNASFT
UniProt Q92599: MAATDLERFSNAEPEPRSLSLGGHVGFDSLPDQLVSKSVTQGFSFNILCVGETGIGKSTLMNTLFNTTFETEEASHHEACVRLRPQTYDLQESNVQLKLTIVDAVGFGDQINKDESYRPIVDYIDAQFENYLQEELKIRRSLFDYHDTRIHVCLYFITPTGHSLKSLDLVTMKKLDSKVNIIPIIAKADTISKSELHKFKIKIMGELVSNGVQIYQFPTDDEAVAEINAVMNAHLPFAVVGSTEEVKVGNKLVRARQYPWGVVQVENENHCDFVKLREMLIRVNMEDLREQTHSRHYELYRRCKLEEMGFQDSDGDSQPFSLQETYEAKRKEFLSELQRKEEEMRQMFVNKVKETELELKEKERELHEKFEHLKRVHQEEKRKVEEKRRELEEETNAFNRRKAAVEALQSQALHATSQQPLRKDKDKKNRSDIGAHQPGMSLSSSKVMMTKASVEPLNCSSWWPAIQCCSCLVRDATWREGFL
UniProt Q14141: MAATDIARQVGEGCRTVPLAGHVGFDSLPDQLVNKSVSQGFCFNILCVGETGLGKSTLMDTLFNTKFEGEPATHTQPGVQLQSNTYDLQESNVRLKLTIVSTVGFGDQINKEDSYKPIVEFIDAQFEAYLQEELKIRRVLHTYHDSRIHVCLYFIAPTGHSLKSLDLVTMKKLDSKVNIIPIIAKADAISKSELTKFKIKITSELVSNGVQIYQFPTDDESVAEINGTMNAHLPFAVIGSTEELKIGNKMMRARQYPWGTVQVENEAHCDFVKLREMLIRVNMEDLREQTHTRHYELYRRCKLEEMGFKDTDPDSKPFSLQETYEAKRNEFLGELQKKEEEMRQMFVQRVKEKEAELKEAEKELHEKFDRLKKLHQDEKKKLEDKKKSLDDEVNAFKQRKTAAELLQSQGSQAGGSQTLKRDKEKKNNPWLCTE

Assays:
[1] = biological target: G domain of SEPT11 (human) (UniProt Q9NVA2); assay: crystal structure
[2] = biological target: G domain of SEPT8 (human) (UniProt Q92599); assay: crystal structure
[3] = biological target: G domain of SEPT11 (human) (UniProt Q9NVA2); assay: SEC-MALS
[4] = biological target: G domain of SEPT8 (human) (UniProt Q92599); assay: SEC-MALS
[5] = biological target: G domain of SEPT6 (human) (UniProt Q14141); assay: SEC-MALS

Measured: binding

G domain of SEPT2 (from UniProt Q15019-1) (domain or fragment)
not listed: [5]
binds: all other assays above

G domain of SEPT4 (from UniProt O43236-1) (domain or fragment)
binds: [3] | [5] | [4]

G domain of SEPT5 (from UniProt Q99719-1) (domain or fragment)
binds: [3] | [5] | [4]
